In US20100041694A1, “AGRICULTURAL COMPOSITION FOR CONTROLLING OR PREVENTING PLANT DISEASES CAUSED BY PLANT PATHOGENIC MICROBES” (Sumitomo Chemical Company, Limited, priority 2007, published 2010):
Some results were stated once for a whole list of compounds, not compound by compound.

Key:
Type in all cases: in vivo
Sclerotinia sclerotiorum = assay: Preventing infection by cucumber Sclerotinia rot, foliage application; conditions: cucumber (Sagami-Hanjiro), flowable formulation 500 ppm foliage application, then inoculation; 18° C. high humidity 4 days
Fusarium oxysporum = assay: Preventing infection by tomato wilt by soil treatment (irrigation); conditions: tomato (Patio) in contaminated soil, 10 mg compound per pot by soil irrigation, 1 month
[1] = test system: Verticillium albo-atrum, V. dahliae, V. nigrescens; assay: Potato blue stem, soil irrigation treatment; conditions: potato (Danshaku) in contaminated soil, 10 mg compound per pot by soil irrigation, 2 months
Gibberella fujikuroi = assay: Rice bakanae disease, seed treatment; conditions: contaminated unhulled rice, seed treatment 200 g compound per 100 kg seeds, 1 month
Gaeumannomyces graminis = assay: Malt damping off, seed treatment; conditions: contaminated malt seeds, seed treatment 200 g compound per 100 kg seeds, 1 month

Question: For `O=C(NCc1ccccc1)c1cc(F)c2ncccc2c1` [Compound 93], which “infected areas of treated plants relative to infected areas of untreated plants” value (Sclerotinia sclerotiorum) is on record?
Answer: ≤ 10%

Question: What about the “blotches in treated plants” value (Fusarium oxysporum) of the same molecule?
Answer: no blotches are found

Question: And the “growth of treated plants” value (Fusarium oxysporum)?
Answer: favorably grow at a level equivalent to that of plants that grow have in noncontaminated soil

Question: What about the “blotches in treated plants” value [1] of the same molecule?
Answer: no blotches are found

Question: And the “growth of treated plants” value [1]?
Answer: favorably grow at a level equivalent to that of plants that grow in noncontaminated soil

Question: And the “growth of treated plants” value (Gibberella fujikuroi)?
Answer: favorably grow at a level equivalent to that of plants that have grown from noncontaminated unhulled rice

Question: And the “growth of treated plants” value (Gaeumannomyces graminis)?
Answer: favorably grow at a level equivalent to that of plants that grow from noncontaminated seeds

Question: What does the source list for `O=C(NCc1ccc(OCc2ccc(F)c(F)c2)cc1)c1ccc2ncccc2c1` [Compound 96]?
Answer: infected areas of treated plants relative to infected areas of untreated plants (Sclerotinia sclerotiorum): ≤ 10%; blotches in treated plants (Fusarium oxysporum): no blotches are found; growth of treated plants (Fusarium oxysporum): favorably grow at a level equivalent to that of plants that grow have in noncontaminated soil; blotches in treated plants [1]: no blotches are found; growth of treated plants [1]: favorably grow at a level equivalent to that of plants that grow in noncontaminated soil; growth of treated plants (Gibberella fujikuroi): favorably grow at a level equivalent to that of plants that have grown from noncontaminated unhulled rice; growth of treated plants (Gaeumannomyces graminis): favorably grow at a level equivalent to that of plants that grow from noncontaminated seeds

Question: How did the “infected areas of treated plants relative to infected areas of untreated plants” value (Sclerotinia sclerotiorum) turn out when `O=C(NCc1cccc(OCc2ccccc2F)c1)c1ccc2ncccc2c1` [Compound 97] was run?
Answer: ≤ 10%

Question: And the “blotches in treated plants” value (Fusarium oxysporum)?
Answer: no blotches are found

Question: What about the “growth of treated plants” value (Fusarium oxysporum) of the same molecule?
Answer: favorably grow at a level equivalent to that of plants that grow have in noncontaminated soil

Question: What about the “blotches in treated plants” value [1] of the same molecule?
Answer: no blotches are found

Question: What about the “growth of treated plants” value [1] of the same molecule?
Answer: favorably grow at a level equivalent to that of plants that grow in noncontaminated soil

Question: And the “growth of treated plants” value (Gibberella fujikuroi)?
Answer: favorably grow at a level equivalent to that of plants that have grown from noncontaminated unhulled rice

Question: And the “growth of treated plants” value (Gaeumannomyces graminis)?
Answer: favorably grow at a level equivalent to that of plants that grow from noncontaminated seeds

Question: Which “infected areas of treated plants relative to infected areas of untreated plants” value (Sclerotinia sclerotiorum) does the source give for `O=C(NCc1cccc(OCc2ccc(F)cc2)c1)c1ccc2ncccc2c1` [Compound 98] here?
Answer: ≤ 10%

Question: What about the “blotches in treated plants” value (Fusarium oxysporum) of the same molecule?
Answer: no blotches are found

Question: What about the “growth of treated plants” value (Fusarium oxysporum) of the same molecule?
Answer: favorably grow at a level equivalent to that of plants that grow have in noncontaminated soil

Question: And the “blotches in treated plants” value [1]?
Answer: no blotches are found

Question: And the “growth of treated plants” value [1]?
Answer: favorably grow at a level equivalent to that of plants that grow in noncontaminated soil

Question: And the “growth of treated plants” value (Gibberella fujikuroi)?
Answer: favorably grow at a level equivalent to that of plants that have grown from noncontaminated unhulled rice

Question: And the “growth of treated plants” value (Gaeumannomyces graminis)?
Answer: favorably grow at a level equivalent to that of plants that grow from noncontaminated seeds

Question: Which “infected areas of treated plants relative to infected areas of untreated plants” value (Sclerotinia sclerotiorum) does the source give for `O=C(NCc1cccc(OCCCc2ccccc2)c1)c1ccc2ncccc2c1` [Compound 99] here?
Answer: ≤ 10%

Question: What about the “blotches in treated plants” value (Fusarium oxysporum) of the same molecule?
Answer: no blotches are found

Question: What about the “growth of treated plants” value (Fusarium oxysporum) of the same molecule?
Answer: favorably grow at a level equivalent to that of plants that grow have in noncontaminated soil

Question: And the “blotches in treated plants” value [1]?
Answer: no blotches are found

Question: What about the “growth of treated plants” value [1] of the same molecule?
Answer: favorably grow at a level equivalent to that of plants that grow in noncontaminated soil

Question: What about the “growth of treated plants” value (Gibberella fujikuroi) of the same molecule?
Answer: favorably grow at a level equivalent to that of plants that have grown from noncontaminated unhulled rice

Question: And the “growth of treated plants” value (Gaeumannomyces graminis)?
Answer: favorably grow at a level equivalent to that of plants that grow from noncontaminated seeds

Question: `O=C(NCc1ccc(OCc2ccncc2)cc1)c1ccc2ncccc2c1` [Compound 100] was tested. Which “infected areas of treated plants relative to infected areas of untreated plants” value (Sclerotinia sclerotiorum) did it give?
Answer: ≤ 10%

Question: And the “blotches in treated plants” value (Fusarium oxysporum)?
Answer: no blotches are found

Question: And the “growth of treated plants” value (Fusarium oxysporum)?
Answer: favorably grow at a level equivalent to that of plants that grow have in noncontaminated soil

Question: And the “blotches in treated plants” value [1]?
Answer: no blotches are found

Question: What about the “growth of treated plants” value [1] of the same molecule?
Answer: favorably grow at a level equivalent to that of plants that grow in noncontaminated soil

Question: What about the “growth of treated plants” value (Gibberella fujikuroi) of the same molecule?
Answer: favorably grow at a level equivalent to that of plants that have grown from noncontaminated unhulled rice

Question: And the “growth of treated plants” value (Gaeumannomyces graminis)?
Answer: favorably grow at a level equivalent to that of plants that grow from noncontaminated seeds

Question: Which results are given for `COCCc1cccc(CNC(=O)c2ccc3ncccc3c2)c1` [Compound 102]?
Answer: infected areas of treated plants relative to infected areas of untreated plants (Sclerotinia sclerotiorum): ≤ 10%; blotches in treated plants (Fusarium oxysporum): no blotches are found; growth of treated plants (Fusarium oxysporum): favorably grow at a level equivalent to that of plants that grow have in noncontaminated soil; blotches in treated plants [1]: no blotches are found; growth of treated plants [1]: favorably grow at a level equivalent to that of plants that grow in noncontaminated soil; growth of treated plants (Gibberella fujikuroi): favorably grow at a level equivalent to that of plants that have grown from noncontaminated unhulled rice; growth of treated plants (Gaeumannomyces graminis): favorably grow at a level equivalent to that of plants that grow from noncontaminated seeds

Question: How did the “infected areas of treated plants relative to infected areas of untreated plants” value (Sclerotinia sclerotiorum) turn out when `COc1ccc(F)c(CNC(=O)c2ccc3ncccc3c2)c1` [Compound 104] was run?
Answer: ≤ 10%

Question: And the “blotches in treated plants” value (Fusarium oxysporum)?
Answer: no blotches are found

Question: What about the “growth of treated plants” value (Fusarium oxysporum) of the same molecule?
Answer: favorably grow at a level equivalent to that of plants that grow have in noncontaminated soil

Question: And the “blotches in treated plants” value [1]?
Answer: no blotches are found

Question: What about the “growth of treated plants” value [1] of the same molecule?
Answer: favorably grow at a level equivalent to that of plants that grow in noncontaminated soil

Question: What about the “growth of treated plants” value (Gibberella fujikuroi) of the same molecule?
Answer: favorably grow at a level equivalent to that of plants that have grown from noncontaminated unhulled rice

Question: What about the “growth of treated plants” value (Gaeumannomyces graminis) of the same molecule?
Answer: favorably grow at a level equivalent to that of plants that grow from noncontaminated seeds

Question: `Cc1ccc(CNC(=O)c2ccc3ncccc3c2)cc1F` [Compound 106] was tested. Which “infected areas of treated plants relative to infected areas of untreated plants” value (Sclerotinia sclerotiorum) did it give?
Answer: ≤ 10%

Question: What about the “blotches in treated plants” value (Fusarium oxysporum) of the same molecule?
Answer: no blotches are found

Question: What about the “growth of treated plants” value (Fusarium oxysporum) of the same molecule?
Answer: favorably grow at a level equivalent to that of plants that grow have in noncontaminated soil

Question: And the “blotches in treated plants” value [1]?
Answer: no blotches are found

Question: And the “growth of treated plants” value [1]?
Answer: favorably grow at a level equivalent to that of plants that grow in noncontaminated soil

Question: What about the “growth of treated plants” value (Gibberella fujikuroi) of the same molecule?
Answer: favorably grow at a level equivalent to that of plants that have grown from noncontaminated unhulled rice

Question: And the “growth of treated plants” value (Gaeumannomyces graminis)?
Answer: favorably grow at a level equivalent to that of plants that grow from noncontaminated seeds

Question: What does the source list for `CSc1cccc(CNC(=O)c2ccc3ncccc3c2)c1` [Compound 108]?
Answer: infected areas of treated plants relative to infected areas of untreated plants (Sclerotinia sclerotiorum): ≤ 10%; blotches in treated plants (Fusarium oxysporum): no blotches are found; growth of treated plants (Fusarium oxysporum): favorably grow at a level equivalent to that of plants that grow have in noncontaminated soil; blotches in treated plants [1]: no blotches are found; growth of treated plants [1]: favorably grow at a level equivalent to that of plants that grow in noncontaminated soil; growth of treated plants (Gibberella fujikuroi): favorably grow at a level equivalent to that of plants that have grown from noncontaminated unhulled rice; growth of treated plants (Gaeumannomyces graminis): favorably grow at a level equivalent to that of plants that grow from noncontaminated seeds
